Laboratory results published in article PMC6171237.
These are yes or no findings as the source states them, for the method shown. For some of these results: In cells and extracts the contact can be indirect. Some entries that bind do so weakly or less than the wild type.

Sequences of proteins named here, by UniProt entry; tags and fusion partners are left off. A change or cut given only in a name is not applied to a line headed by its entry. Residues count along the entry.
UniProt Q9NPG3: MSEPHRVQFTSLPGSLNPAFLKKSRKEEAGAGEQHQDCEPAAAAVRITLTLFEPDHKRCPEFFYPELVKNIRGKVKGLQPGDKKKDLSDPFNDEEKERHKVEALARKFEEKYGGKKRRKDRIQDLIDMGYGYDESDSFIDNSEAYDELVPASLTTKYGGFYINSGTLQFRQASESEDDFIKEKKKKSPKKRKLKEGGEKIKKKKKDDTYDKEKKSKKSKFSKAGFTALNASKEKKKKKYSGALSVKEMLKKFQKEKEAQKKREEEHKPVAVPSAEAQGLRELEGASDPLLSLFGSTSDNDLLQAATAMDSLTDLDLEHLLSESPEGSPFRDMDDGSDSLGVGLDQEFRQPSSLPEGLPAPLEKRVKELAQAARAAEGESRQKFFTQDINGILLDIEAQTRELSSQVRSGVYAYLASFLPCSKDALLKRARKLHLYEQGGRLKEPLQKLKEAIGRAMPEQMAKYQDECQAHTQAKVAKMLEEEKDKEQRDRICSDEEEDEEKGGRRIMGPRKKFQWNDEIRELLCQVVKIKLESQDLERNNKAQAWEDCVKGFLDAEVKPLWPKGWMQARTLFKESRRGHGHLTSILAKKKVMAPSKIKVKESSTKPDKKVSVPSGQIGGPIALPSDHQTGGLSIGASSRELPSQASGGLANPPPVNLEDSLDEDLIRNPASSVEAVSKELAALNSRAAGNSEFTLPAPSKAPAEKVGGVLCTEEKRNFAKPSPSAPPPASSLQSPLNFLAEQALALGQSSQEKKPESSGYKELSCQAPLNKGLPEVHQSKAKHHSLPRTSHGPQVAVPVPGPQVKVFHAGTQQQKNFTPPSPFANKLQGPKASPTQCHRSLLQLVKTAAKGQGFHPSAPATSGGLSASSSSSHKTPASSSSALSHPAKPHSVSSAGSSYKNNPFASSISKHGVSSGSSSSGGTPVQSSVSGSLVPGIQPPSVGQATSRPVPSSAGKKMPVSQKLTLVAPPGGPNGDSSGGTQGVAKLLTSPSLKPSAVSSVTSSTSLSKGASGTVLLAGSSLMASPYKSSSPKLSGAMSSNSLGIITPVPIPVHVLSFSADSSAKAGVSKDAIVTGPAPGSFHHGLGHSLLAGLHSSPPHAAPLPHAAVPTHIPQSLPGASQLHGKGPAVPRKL
UniProt P54198: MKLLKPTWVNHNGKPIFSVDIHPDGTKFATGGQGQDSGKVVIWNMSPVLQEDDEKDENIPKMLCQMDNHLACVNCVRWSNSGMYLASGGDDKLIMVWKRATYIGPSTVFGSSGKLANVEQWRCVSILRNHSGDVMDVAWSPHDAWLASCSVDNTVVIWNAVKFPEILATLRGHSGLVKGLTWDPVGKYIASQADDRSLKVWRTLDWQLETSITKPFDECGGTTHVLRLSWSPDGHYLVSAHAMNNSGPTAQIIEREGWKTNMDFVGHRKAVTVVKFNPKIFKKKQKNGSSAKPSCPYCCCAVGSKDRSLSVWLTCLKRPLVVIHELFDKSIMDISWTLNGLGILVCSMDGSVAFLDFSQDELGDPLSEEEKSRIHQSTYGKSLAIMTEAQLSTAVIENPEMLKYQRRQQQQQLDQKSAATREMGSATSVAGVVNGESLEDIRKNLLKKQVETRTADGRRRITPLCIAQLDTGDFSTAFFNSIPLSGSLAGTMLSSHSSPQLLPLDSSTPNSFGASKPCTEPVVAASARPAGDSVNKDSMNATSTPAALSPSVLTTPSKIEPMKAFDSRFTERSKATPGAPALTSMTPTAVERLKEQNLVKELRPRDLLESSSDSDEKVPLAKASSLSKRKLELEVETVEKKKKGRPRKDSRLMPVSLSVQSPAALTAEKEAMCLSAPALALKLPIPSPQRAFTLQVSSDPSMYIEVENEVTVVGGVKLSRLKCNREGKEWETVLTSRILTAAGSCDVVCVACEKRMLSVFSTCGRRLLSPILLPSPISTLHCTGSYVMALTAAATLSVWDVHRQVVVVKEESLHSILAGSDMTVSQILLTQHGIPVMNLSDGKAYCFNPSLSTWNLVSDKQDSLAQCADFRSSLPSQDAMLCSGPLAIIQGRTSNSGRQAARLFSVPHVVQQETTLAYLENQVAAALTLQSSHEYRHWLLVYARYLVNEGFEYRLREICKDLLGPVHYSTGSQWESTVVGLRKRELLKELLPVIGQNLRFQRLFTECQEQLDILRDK
GST-HIRA (1–481): residues 1-481 of P54198
UniProt Q6ZU65, residues 109-1315: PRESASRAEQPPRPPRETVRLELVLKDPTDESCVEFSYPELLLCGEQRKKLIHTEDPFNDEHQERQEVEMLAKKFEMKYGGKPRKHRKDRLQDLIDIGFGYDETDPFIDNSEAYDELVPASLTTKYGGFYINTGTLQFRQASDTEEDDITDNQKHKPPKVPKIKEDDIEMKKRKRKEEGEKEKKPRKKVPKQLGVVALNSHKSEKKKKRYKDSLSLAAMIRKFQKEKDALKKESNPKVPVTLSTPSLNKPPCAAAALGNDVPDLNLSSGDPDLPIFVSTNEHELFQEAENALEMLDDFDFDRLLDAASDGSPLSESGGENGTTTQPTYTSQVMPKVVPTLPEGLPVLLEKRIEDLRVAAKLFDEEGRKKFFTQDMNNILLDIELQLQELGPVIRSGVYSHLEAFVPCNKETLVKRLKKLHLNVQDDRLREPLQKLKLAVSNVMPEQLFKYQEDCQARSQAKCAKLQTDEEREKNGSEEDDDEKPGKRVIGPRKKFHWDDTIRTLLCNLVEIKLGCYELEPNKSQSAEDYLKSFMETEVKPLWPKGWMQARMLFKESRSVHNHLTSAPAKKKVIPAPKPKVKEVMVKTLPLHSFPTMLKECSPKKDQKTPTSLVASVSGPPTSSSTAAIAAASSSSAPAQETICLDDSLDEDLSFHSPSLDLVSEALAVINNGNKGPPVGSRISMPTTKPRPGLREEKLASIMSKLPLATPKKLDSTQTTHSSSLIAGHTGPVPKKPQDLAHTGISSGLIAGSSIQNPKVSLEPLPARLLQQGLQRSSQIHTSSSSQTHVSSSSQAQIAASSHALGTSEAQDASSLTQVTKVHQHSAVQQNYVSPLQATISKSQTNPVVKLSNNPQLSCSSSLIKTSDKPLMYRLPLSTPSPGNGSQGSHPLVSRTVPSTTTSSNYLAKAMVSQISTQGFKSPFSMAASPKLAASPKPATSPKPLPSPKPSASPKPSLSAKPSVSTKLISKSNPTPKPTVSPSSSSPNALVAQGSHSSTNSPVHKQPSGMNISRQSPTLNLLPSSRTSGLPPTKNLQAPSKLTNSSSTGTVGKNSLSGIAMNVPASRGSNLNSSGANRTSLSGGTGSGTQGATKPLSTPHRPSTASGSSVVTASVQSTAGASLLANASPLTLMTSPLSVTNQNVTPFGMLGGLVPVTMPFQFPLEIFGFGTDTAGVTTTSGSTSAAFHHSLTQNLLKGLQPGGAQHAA

Assays:
Flag-UBN1 (human) = Flag-UBN1 (human) (UniProt Q9NPG3); test: co-IP; HEK293T cells (wild type or HIRA knockout) transfected with Flag-tagged and HA-tagged plasmids, in some panels also Myc-tagged HIRA, UBN1, Cabin1 or Asf1a; lysed in RIPA buffer (50 mM Tris-HCl pH 7.6, 150 mM NaCl, 1 mM EDTA, 0.1% Nonidet P-40, 10% glycerol); anti-Flag M2 agarose overnight at 4 °C; Western blot
[1] = molecular target: Flag-UBN1 F138A/I139A/D140A (human) (UniProt Q9NPG3); test: as above
[2] = molecular target: exogenous UBN1 in HEK293T cells (co-IP with UBN2) (human) (UniProt Q9NPG3); test: as above
GST-HIRA (1–481) (human) = GST-HIRA (1–481) (human) (UniProt P54198); test: co-purification; GST-HIRA (1–481) and His-UBN1 (1–213) co-expressed in Sf9 insect cells (baculovirus); the complex purified by GST tag

With Myc-HIRA (from UniProt P54198 1-1017) the binding (Flag-UBN1 (human)) was “binds” and the binding [1] was “binds”.

In the case of “exogenous UBN2 in HEK293T cells (co-IP with UBN1) (from UniProt Q6ZU65 109-1315) (domain or fragment)”, the binding [2] is reported as “no binding”.

In the case of “His-UBN1 (1–213) (from UniProt Q9NPG3 1-213) (domain or fragment)”, the binding (GST-HIRA (1–481) (human)) is reported as “binds”.
